Test results: patent US20170119790A1, “Agents, Uses and Methods” (CYTOGUIDE A/S, priority 2009, published 2017)
Where two headings read alike, the source gives them in different places. At least one structure is not confirmed: it was looked up by name or label, or the drawing left a doubt.

Legend:
[1] = system: LPS mediated TNFα stimulation of rat macrophages / spleen cells; test: Rat in vitro LPS model; format: cell-based; conditions: 1 μg/ml, 3 hours before LPS stimulation for 20 hours, FIG. 37
Method: Rat or mouse peritoneal or spleen cell suspensions were prepared from female Lewis rats (Harlan) or BalB/cA mice (Taconic). Human mononuclear cells were isolated from buffycoats (Skejby University Hospital) as described above. The purified cells were suspended in RPMI medium supplemented with 10% FCS and 2 mM L-glutamine and cultured (2×10^5 per well) overnight in 96-well flat bottomed plates (125 μl per well) at 37° C. and 5% CO2. Glucocorticoid conjugates (Example 8), free glucocorticoids or PBS were serial diluted in supplemented RPMI medium and added (100 μl) to the overnight cell cultures at final concentrations ranging from 1-10^−7 μg glucocorticoid/ml. After incubation for a specific time ranging from 30 min-24 hours, 150 μl supernatant was carefully aspirated and 150 μl supplemented RPMI medium added to the wells before further incubation overnight. Each incubation condition was tested in duplicates or triplicates. After 16-20 hours, the cells were challenged with lipopolysaccharide (LPS) (250 ng/ml) for 4 hours before supernatant was aspirated from each well and frozen at -20° C.

[2] = system: collagen-induced arthritis
[3] = system: collagen antibody induced arthritis; conditions: i.v. from day 4, 4 treatments, FIG. 43

SMILES	effect on LPS mediated TNFα stimulation / secretion of rat macrophages [1]	hind paw swelling with respect to the vehicle group ([2]; 0.1 mg/kg)	disease incidence ([2]; 1 mg/kg)	hind paw swelling with respect to the vehicle group ([2]; 1 mg/kg)	disease severity (mean clinical score as well as cumulative score) compared to vehicle [3]
C[C@@H]1C[C@H]2[C@@H]3CCC4=CC(=O)C=C[C@]4(C)[C@@]3(F)[C@@H](O)C[C@]2(C)[C@@]1(O)C(=O)CO [dexamethasone]	prevented LPS mediated stimulation	significant differences	never reached 100% disease incidence	significant differences	–
C[C@H]1C[C@@H]2[C@H]([C@@H](O)C[C@@]3(C)[C@H]2CC[C@]3(O)C(=O)CO)[C@@]2(C)C=CC(=O)C=C12 [methyl-prednisolone]	–	–	–	–	significantly lower
